A short description of this test: qHTS Assay for Lipid Storage Modulators in Drosophila S3 Cells.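 For cell number change: cells counted by Cell Tracker Red CMTPX staining in the red channel.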 The settings on record: BODIPY lipid droplet fluorescence, 18-24 h; for cell number change: measured here: cell count max response, cells fed with added oleic acid. An outline of the steps: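 Drosophila S3 cells got compounds at several concentrations plus oleic acid (400 uM solution). Laser-scanning cytometry with 488 nm excitation read lipid droplets at 500-530 nm and cells at 575-640 nm. Percent activity was relative to 20 uM Triacsin C.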
A general note: Quantitative high-throughput screening tests each substance at several concentrations.

[1] abbreviates: measured here: lipid fluorescence (Fed channel) AC50, cells fed with added oleic acid.
The mark [2] stands for this setting: measured here: cell number channel AC50, cells fed with added oleic acid.

Some of the results follow. These are further read-outs of the screen, such as a control signal, another cell line or another target. No call is given for them. Compounds called inactive in the main read-out are mostly missing here. Words in brackets tell the shape of the fitted curve; partial curves, single points and poor fits give uncertain potencies.

With `CCOC(=O)C1CCN(C(=O)c2cc3c(ccc4ccccc43)o2)CC1`, the cell number change turned out to be 12.7%.
For orientation: AC50 means the concentration at which the activity in the assay is half-maximal. `COc1ccc(NC(=S)NCC(O)c2ccccc2)c(OC)c1` (configuration not stated): under setting [1], the half-maximal activity concentration (AC50) was 16.4 µM [rising, single point].
Regarding `CCOC(=O)c1c(C)[nH]c(C)c1C(=O)COC(=O)c1cccc(C)c1O`, the cell number change came to 3.65%.
On the same count and under the same terms, the result for `N#Cc1ccc(C(=O)Nc2nc(SCc3ccc(Cl)cc3)n[nH]2)cc1` reads 114%.
As for `C#CCOc1ccc(C2C3=C(CC(C)(C)CC3=O)N(CC(=O)O)C3=C2C(=O)CC(C)(C)C3)cc1OC`, under setting [1], the AC50 was 5.17 µM [falling, single point].
As to `Cc1ccc(N2CC(C(=O)Nc3nc4ccc(S(C)(=O)=O)cc4s3)CC2=O)cc1C` (configuration not stated), the cell number change worked out at 14.7%. For the same molecule, the concentration at half-maximal activity (AC50) under setting [1] is 29.1 µM [rising, single point].
As to `Cn1c(=O)c2sccc2n(CC(=O)NCCC2=CCCCC2)c1=O`, the cell number change came out at 8.12%.
In the case of `O=C(CSc1nnc(COc2cccc3cccnc23)o1)N1CCCC1`, the cell number change is 5.94%. Moreover, the AC50 under setting [1] was 7.31 µM [rising, single point].
`CC1=CCC2C(=O)N(c3ccc(C(=O)N4CCCCCC4)cc3)C(=O)C2C1` (configuration not stated): the cell number change was -89.8%. Moreover, the AC50 under setting [2] was 25.9 µM [falling, partial curve]. Moreover, the half-maximal activity concentration (AC50) under setting [1] was 6.51 µM [falling, single point].
With `CCOC(=O)C1CCN(Cc2cc(Cl)c3ccccc3c2O)CC1`, the cell number change turned out to be 2.1%. The concentration at half-maximal activity (AC50) under setting [1] is 18.4 µM [falling, partial curve, poor fit].
Regarding `Cc1occc1C(=O)N1CCN(S(=O)(=O)c2ccccc2)CC1`, the cell number change came out at 8.9%. Further, the AC50 under setting [1] was 6.51 µM [falling, single point].
On to `CCOCC(=O)N1CCN(c2cccc(Cl)c2)CC1`, for which the cell number change was 28.7%.
As to `O=C(Cn1ccc([N+](=O)[O-])n1)NCc1cccs1`, the cell number change amounted to 38.3%. The AC50 under setting [1] was 3.26 µM [rising, full curve].
With `CC(C)OC(=O)c1cc(-c2ccc(C=O)o2)ccc1Cl`, the cell number change was determined as 0.407%. Moreover, the AC50 under setting [1] is 0.651 µM [rising, single point].
`CCC1(C)Cc2ccccc2-c2nc3n(c(=O)c21)CCS3` (configuration not stated): the cell number change was -83.3%. In addition, the AC50 under setting [2] is 29.1 µM [falling, single point].
As for `Cc1ccc(C)c(Sc2ccc(NC(=O)CCN3C(=O)NC4(CCCC4)C3=O)cc2)c1`, the cell number change is -52.3%. Further, under setting [2], the AC50 is 18.4 µM [falling, single point].
For the molecule `CCNc1c(NS(=O)(=O)c2ccc(F)c(Cl)c2)c(=O)oc2ccccc12`, the cell number change came to 13.9%.
With `C=CCc1cccc(/C=N/NC(=O)CCC(=O)Nc2ccc(C)cc2)c1O`, the cell number change came to 52.3%. Also, the concentration at half-maximal activity (AC50) under setting [2] was 25.9 µM [rising, single point]. Besides, under setting [1], the AC50 is 6.51 µM [rising, single point].
Turning to `O=C(c1cc2ccccc2oc1=O)N1CCN(C(=O)C2CCCO2)CC1` (configuration not stated), the cell number change was -0.52%. Also, the AC50 under setting [1] is 25.9 µM [falling, partial curve, poor fit].

These data come from PubChem BioAssay AID2685 (National Center for Advancing Translational Sciences (NCATS), 2010).
